From patent US20260274954A1 (published 2026)
Changes are numbered by the printed parent chain. No constants are given. Whether binding was seen depends on the method and setting. Some results given as binding are weak or reduced against the parent protein; the word gives no strength.

Sequences of proteins named here, by UniProt entry; tags and fusion partners are left off. A change or cut given only in a name is not applied to a line headed by its entry. Residues count along the entry.
UniProt Q15116: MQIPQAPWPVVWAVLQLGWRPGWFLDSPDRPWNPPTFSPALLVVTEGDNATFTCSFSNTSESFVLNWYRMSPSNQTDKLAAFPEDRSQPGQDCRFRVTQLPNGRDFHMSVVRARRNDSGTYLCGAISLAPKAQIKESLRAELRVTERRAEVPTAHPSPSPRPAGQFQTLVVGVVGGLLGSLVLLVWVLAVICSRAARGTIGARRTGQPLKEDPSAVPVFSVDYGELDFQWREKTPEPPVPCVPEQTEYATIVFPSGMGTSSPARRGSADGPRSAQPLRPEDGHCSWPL
UniProt Q02242, residues 25-167: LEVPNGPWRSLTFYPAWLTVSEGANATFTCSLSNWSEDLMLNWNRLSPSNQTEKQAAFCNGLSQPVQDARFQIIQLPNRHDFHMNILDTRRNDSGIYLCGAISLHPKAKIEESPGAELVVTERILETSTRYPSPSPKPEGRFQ

B1: 2E5 (antibody, V domains shown)
VH: QVQLVQSGAEVKKPGSSVKVSCKASGFTFTTYYISWVRQAPGQGLEYLGYINMGSGGTNYNEKFKGRVTITADKSTSTAYMELSSLRSEDTAVYYCAIIGYFDYWGQGTMVTVSS
VL: DVVMTQSPLSLPVTLGQPASISCRSSQSLLDSDGGTYLYWFQQRPGQSPRRLIYLVSTLGSGVPDRFSGSGSGTDFTLKISRVEAEDVGVYYCMQLTHWPYTFGQGTKLEIK
B2: 1H6 (antibody, V domains shown)
VH: B1 VH with I99L
VL: B1 VL
B3: 2C2 (antibody, V domains shown)
VH: B1 VH
VL: B1 VL with G35A
B4: 2G4 (antibody, V domains shown)
VH: B1 VH
VL: B1 VL with G35S

molecular target: human PD-1 protein (construct not stated) (human) (UniProt Q15116); assay: ELISA, coated PD-1 at 1 ug/ml

Binder	binding
B1	binds
B2	binds
B3	binds
B4	binds

molecular target: mouse PD-1 protein (construct not stated) (mouse) (UniProt Q02242); assay: ELISA, coated PD-1 at 1 ug/ml

Binder	binding
B1	binds
B2	binds
B3	binds
B4	binds
